Laboratory results reported in PMC8968728.

Sequences of proteins named here, by UniProt entry; tags and fusion partners are left off.
UniProt P07355: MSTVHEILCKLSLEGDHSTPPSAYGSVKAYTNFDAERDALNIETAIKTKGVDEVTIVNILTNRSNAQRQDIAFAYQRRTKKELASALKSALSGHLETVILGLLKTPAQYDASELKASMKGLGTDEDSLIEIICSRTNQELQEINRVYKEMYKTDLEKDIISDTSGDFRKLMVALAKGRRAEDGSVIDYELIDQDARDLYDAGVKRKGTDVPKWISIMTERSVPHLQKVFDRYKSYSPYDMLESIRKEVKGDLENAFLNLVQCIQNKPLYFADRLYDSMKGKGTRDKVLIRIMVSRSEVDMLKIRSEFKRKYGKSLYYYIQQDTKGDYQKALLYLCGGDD
UniProt P04792: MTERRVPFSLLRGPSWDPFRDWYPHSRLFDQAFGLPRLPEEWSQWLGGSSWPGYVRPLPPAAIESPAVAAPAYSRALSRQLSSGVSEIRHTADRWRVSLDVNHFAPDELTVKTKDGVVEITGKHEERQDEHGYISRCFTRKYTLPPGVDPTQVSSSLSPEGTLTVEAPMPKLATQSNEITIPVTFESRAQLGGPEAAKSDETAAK
UniProt P08670: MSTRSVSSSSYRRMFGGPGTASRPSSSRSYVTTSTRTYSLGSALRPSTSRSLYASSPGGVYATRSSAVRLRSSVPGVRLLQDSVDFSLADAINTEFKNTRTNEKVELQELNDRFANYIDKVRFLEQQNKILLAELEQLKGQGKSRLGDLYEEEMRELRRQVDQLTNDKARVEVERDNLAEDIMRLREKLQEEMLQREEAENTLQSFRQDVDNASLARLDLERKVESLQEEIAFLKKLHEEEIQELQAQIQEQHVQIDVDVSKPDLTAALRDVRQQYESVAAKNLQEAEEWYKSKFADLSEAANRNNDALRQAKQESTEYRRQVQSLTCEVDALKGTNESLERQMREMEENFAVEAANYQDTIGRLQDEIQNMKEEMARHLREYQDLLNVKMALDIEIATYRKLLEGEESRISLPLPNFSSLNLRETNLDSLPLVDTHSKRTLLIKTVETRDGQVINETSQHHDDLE

Molecular target: Annexin A2 (human (endogenous in CNE2(R743))) (UniProt P07355)
Assay: affinity purification with mass spectrometry; Co-IP (Pierce Co-Immunoprecipitation Kit) from sonicated lysate of log-phase CNE2(R743) cells in PBS with 1 mM PMSF; enriched ANXA2-interacting proteins separated by SDS-PAGE, bands identified by MALDI-TOF-MS (Mascot, NCBInr); hits analysed in the STRING database

binding | Substance
binds | HSP27 (from UniProt P04792 1-205)
binds | Vimentin (from UniProt P08670 1-466)

Results are given in words; binding and its absence hold for the method and conditions named. Binding seen in cells or lysates may run through a third protein. These calls come from enrichment with a bait or labelling near it, and not all partners need be listed.
